Results deposited as PubChem BioAssay AID1259405 (NCATS, 2018).
Aim: 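Silenced genes that increase secreted GFP made by CHO cells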 (primary screen). System: Chinese hamster CHO-K1 ovary cells with stable secreted eGFP expression. Reagents: single siRNA against mouse genes, 0.8 pmol siRNA per well (2 µl of 400 nM stock). Time to read-out: 3 days. Detection: 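Percent of the per-plate non-targeting control median for intracellular GFP per well by laser scanning cytometry and for cell viability by ATP luminescence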. Reading the numbers: GFP, % of control: higher = more GFP per well, higher productivity; viability (ATP), % of control: higher = more viable cells (more ATP). Hit rule: 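a knock-down is called active if GFP reaches 120% or more of non-targeting control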.
The deposit covers about 50,000 reagents; shown is an unselected part. Of all reagents, about 4,000 (8%) were called active. 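Mouse siRNA library applied to hamster cells; one well for each siRNA.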 Entries without a mark were called inactive. The numbers tell different reagents against one gene apart. No sequences are given here.

{"target gene":"Or11j4","reagent no.":1,"GFP, % of control":51.2,"viability (ATP), % of control":44}
{"target gene":"Or11j4","reagent no.":2,"GFP, % of control":92.2,"viability (ATP), % of control":92.3}
{"target gene":"Or11j4","reagent no.":3,"GFP, % of control":53.2,"viability (ATP), % of control":47.6}
{"target gene":"Rab23","reagent no.":1,"GFP, % of control":"131 (active)","viability (ATP), % of control":98.5}
{"target gene":"Rab23","reagent no.":2,"GFP, % of control":38,"viability (ATP), % of control":71.8}
{"target gene":"Rab23","reagent no.":3,"GFP, % of control":15.1,"viability (ATP), % of control":16.8}
{"target gene":"Blcap","reagent no.":1,"GFP, % of control":45.6,"viability (ATP), % of control":81.7}
{"target gene":"Blcap","reagent no.":2,"GFP, % of control":86.8,"viability (ATP), % of control":66.9}
{"target gene":"Blcap","reagent no.":3,"GFP, % of control":"136 (active)","viability (ATP), % of control":134}
{"target gene":"Stk31","reagent no.":1,"GFP, % of control":104,"viability (ATP), % of control":79.4}
{"target gene":"Stk31","reagent no.":2,"GFP, % of control":76,"viability (ATP), % of control":133}
{"target gene":"Lrfn2","reagent no.":1,"GFP, % of control":80.8,"viability (ATP), % of control":90.1}
{"target gene":"Lrfn2","reagent no.":2,"GFP, % of control":69,"viability (ATP), % of control":81.5}
{"target gene":"Lrfn2","reagent no.":3,"GFP, % of control":60.5,"viability (ATP), % of control":68.9}
{"target gene":"Evc2","reagent no.":1,"GFP, % of control":79.7,"viability (ATP), % of control":89.1}
{"target gene":"Evc2","reagent no.":2,"GFP, % of control":78,"viability (ATP), % of control":83.9}
{"target gene":"Evc2","reagent no.":3,"GFP, % of control":60.8,"viability (ATP), % of control":68.9}
{"target gene":"Gbf1","reagent no.":1,"GFP, % of control":"125 (active)","viability (ATP), % of control":119}
{"target gene":"Gbf1","reagent no.":2,"GFP, % of control":67.4,"viability (ATP), % of control":85.5}
{"target gene":"Gbf1","reagent no.":3,"GFP, % of control":49.5,"viability (ATP), % of control":47.7}
{"target gene":"Taok3","reagent no.":1,"GFP, % of control":93.7,"viability (ATP), % of control":92.1}
{"target gene":"Sct","reagent no.":1,"GFP, % of control":64.6,"viability (ATP), % of control":78.8}
{"target gene":"Sct","reagent no.":2,"GFP, % of control":58.5,"viability (ATP), % of control":49.5}
{"target gene":"Sct","reagent no.":3,"GFP, % of control":66.7,"viability (ATP), % of control":40.8}
{"target gene":"Llgl1","reagent no.":1,"GFP, % of control":83.4,"viability (ATP), % of control":56.1}
{"target gene":"Llgl1","reagent no.":2,"GFP, % of control":56.2,"viability (ATP), % of control":32.7}
{"target gene":"Llgl1","reagent no.":3,"GFP, % of control":73.4,"viability (ATP), % of control":77.7}
{"target gene":"Onecut2","reagent no.":1,"GFP, % of control":71.6,"viability (ATP), % of control":78.8}
{"target gene":"Onecut2","reagent no.":2,"GFP, % of control":67.4,"viability (ATP), % of control":66.4}
{"target gene":"Onecut2","reagent no.":3,"GFP, % of control":117,"viability (ATP), % of control":89.1}
{"target gene":"Nsun6","reagent no.":1,"GFP, % of control":68.1,"viability (ATP), % of control":70.2}
{"target gene":"Nsun6","reagent no.":2,"GFP, % of control":87.5,"viability (ATP), % of control":84.2}
{"target gene":"Nsun6","reagent no.":3,"GFP, % of control":60.3,"viability (ATP), % of control":66.7}
{"target gene":"Il22ra1","reagent no.":1,"GFP, % of control":107,"viability (ATP), % of control":111}
{"target gene":"Il22ra1","reagent no.":2,"GFP, % of control":"159 (active)","viability (ATP), % of control":95.6}
{"target gene":"Il22ra1","reagent no.":3,"GFP, % of control":54.6,"viability (ATP), % of control":38.6}
{"target gene":"Tma16","reagent no.":1,"GFP, % of control":46,"viability (ATP), % of control":49.3}
{"target gene":"Tma16","reagent no.":2,"GFP, % of control":67,"viability (ATP), % of control":78.2}
{"target gene":"Tma16","reagent no.":3,"GFP, % of control":84.1,"viability (ATP), % of control":83.8}
{"target gene":"Izumo4","reagent no.":1,"GFP, % of control":85.4,"viability (ATP), % of control":77}
{"target gene":"Izumo4","reagent no.":2,"GFP, % of control":47.6,"viability (ATP), % of control":64.9}
{"target gene":"Izumo4","reagent no.":3,"GFP, % of control":84.4,"viability (ATP), % of control":88}
{"target gene":"S100a5","reagent no.":1,"GFP, % of control":98.3,"viability (ATP), % of control":113}
{"target gene":"S100a5","reagent no.":2,"GFP, % of control":78,"viability (ATP), % of control":81.9}
{"target gene":"Tslp","reagent no.":1,"GFP, % of control":65.5,"viability (ATP), % of control":50.6}
{"target gene":"Tslp","reagent no.":2,"GFP, % of control":70.2,"viability (ATP), % of control":82.3}
{"target gene":"Tslp","reagent no.":3,"GFP, % of control":"139 (active)","viability (ATP), % of control":128}
{"target gene":"Zfp346","reagent no.":1,"GFP, % of control":47.1,"viability (ATP), % of control":53.9}
{"target gene":"Zfp346","reagent no.":2,"GFP, % of control":96.4,"viability (ATP), % of control":116}
{"target gene":"Zfp346","reagent no.":3,"GFP, % of control":53.3,"viability (ATP), % of control":63.3}
{"target gene":"Casp2","reagent no.":1,"GFP, % of control":90.4,"viability (ATP), % of control":69.2}
{"target gene":"Casp2","reagent no.":2,"GFP, % of control":66.8,"viability (ATP), % of control":75.6}
{"target gene":"Casp2","reagent no.":3,"GFP, % of control":88.2,"viability (ATP), % of control":93.5}

Hits, of those listed so far:
{"target gene":"Rab23","reagent no.":1,"GFP, % of control":"131 (active)","viability (ATP), % of control":98.5}
{"target gene":"Blcap","reagent no.":3,"GFP, % of control":"136 (active)","viability (ATP), % of control":134}
{"target gene":"Gbf1","reagent no.":1,"GFP, % of control":"125 (active)","viability (ATP), % of control":119}
{"target gene":"Il22ra1","reagent no.":2,"GFP, % of control":"159 (active)","viability (ATP), % of control":95.6}
{"target gene":"Tslp","reagent no.":3,"GFP, % of control":"139 (active)","viability (ATP), % of control":128}
